Assay results taken from US20230320989A1, “SUSTAINED-RELEASE PHARMACEUTICAL FORMULATION OF FUSED TRICYCLIC ?-AMINO ACID DERIVATIVE AND PREPARATION METHOD THEREFOR” (SICHUAN HAISCO PHARMACEUTICAL CO., LTD., priority 2020, published 2023).
Some entries share one result that the patent states for a list of compounds.

Experiment: Absorption in the gastrointestinal tract (absorption window)
Assay type: in vivo
Conditions: mainly absorbed in the small intestine of the human body

| Structure (SMILES) | mean absorption window |
| --- | --- |
| NC[C@@]1(CC(=O)O)[C@@H]2CC[C@H]3C[C@@H]2[C@@H]1C3 [Compound III] | no more than 6 hours |
| NC[C@@]1(CC(=O)O)[C@@H]2CC[C@H]3C[C@@H]2[C@@H]1C3.O=S(=O)(O)c1ccccc1 [Compound IV] | no more than 6 hours |
| NCC1(CC(=O)O)C2CCC3CC2C1C3 (stereo not drawn) [formula (II)] | no more than 6 hours |
